For assay [1], the target named is recombinant cynomolgus PD-L1-FLAG-HIS (cynomolgus) (UniProt G7PSE7). The assay is described as follows: ELISA; plate coated with recombinant cynomolgus PD-L1-FLAG-HIS (legend of FIG. 9). A general note: ELISA stands for enzyme-linked immunosorbent assay.
Assay [2] shares this target. The assay is described as follows: ELISA; plate coated with recombinant cynomolgus PD-L1-FLAG-HIS; hybridoma supernatants, anti-rat IgG Fc-HRP detection.

The chains behind the UniProt entries cited, without tags or fusion partners. Where a name states a change or a piece, a line headed by the entry shows the natural chain unless it says otherwise. A line that says so, or that is headed by a name, gives the form on record, which may keep a tag or linker.
recombinant cynomolgus PD-L1-FLAG-HIS (G7PSE7, form named): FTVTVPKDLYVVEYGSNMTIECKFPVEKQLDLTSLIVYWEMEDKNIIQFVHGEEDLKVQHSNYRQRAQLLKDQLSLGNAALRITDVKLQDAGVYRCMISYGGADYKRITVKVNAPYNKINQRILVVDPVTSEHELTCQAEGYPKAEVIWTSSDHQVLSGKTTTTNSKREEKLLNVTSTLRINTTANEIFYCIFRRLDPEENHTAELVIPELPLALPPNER

Results are given in words; binding and its absence hold for the method and conditions named. Some results given as binding are weak or reduced against the parent protein; the word gives no strength.

In patent US20210198374A1 one finds binding data, which are given here for 6 molecules.

B1: 1B3 (antibody, V domains shown)
VH: EVQLVESGGGLVQPGGSLRLSCAASGGTISTSWMSWVRQAPGKGLEWVANIKQDGSEKYYVDSVKGRFTISRDNAKNSLYLQMNSLRVEDTAMYYCARDRPVAGASALWGQGTLVTVSS
VL: DIQMTQSPSTLSASVGDRVTITCRASQSISGWLAWYQQKPGKAPKLLIYKASSLESGVPSRFSGSGSGTEFTLTISSLQPDDFATYYCQQYYGSSRTFGQGTNVEIK
For B1, the binding result in assay [1] and in assay [2] was “binds” each time.

B2: 7H7 (antibody, V domains shown)
VH: EVQLVESGGGLVQPGGSLRLSCAASGGTISTSWMSWVRQAPGKGLEWVANIKQDGSEKYYVDSVKGRFTISRDNAKNSLYLQMNSLRVEDTAIYYCARDRPVAGASALWGQGTLVTVSS
VL: DIQMTQSPSTLSASVGDRVTITCRASQSISGWLAWYQQKQGKAPKLLIYKASSLESGVPSRFSGSGSGTEFTLTISSLQPDDFATYYCQQYYGSSRTFGQGTNVEIK
For the molecule B2, the binding result in assay [1] and in assay [2] was “binds” in each case.

B3: 8B1 (antibody, V domains shown)
VH: EVRLVESGGGLVQPGGSLRLSCAASGDIISTHWMSWVRQAPGKGLEWVANIKQDGSEKYYVDSVKGRFTISRDNAKNSLYLQMNTLRVEDTAIYYCTRDRPVAGASALWGQGTLVTVSS
VL: DIQMTQSPSTLSASVGDRVTITCRASQSISGWLAWYQQKPGKAPKLLIYKASSLESGVPLRFSGSGSGTEFTLTISSLQPDDFATYYCQQYYGSSRTFGQGTNVEIK
B3: the binding entry in assay [1] and in assay [2] was “binds” throughout.

B4: 4A3 (antibody, V domains shown)
VH: EVQLVESGGGLVQPGGSLRLSCAASGGIISSSWMSWVRQAPGKGLEWVANIKQDGSEKYYVDSVKGRFTISRDNAKDLLYLQMNSLRVEDTALYYCARDRPVAGASALWGQGTLVTVSS
VL: DIQMTQSPSTLSASVGDRVTITCRASQSISGWLAWYQQKPGKAPKLLIYKASSLESGVPSRFSGSGSGTEFTLTISSLQPDDFATYYCQQYYGSSRTFGQGTNVEIK
On to B4, for which the binding entry in assay [1] and in assay [2] was “binds” each time.

B5: 9H9 (antibody, V domains shown)
VH: EVQLVESGGGLVQPGGSLRLSCAASGGIISTYWMSWVRQAPGKGLEWVANIKQDGSEKYYVDSVKGRFTISRDNAKNSLYLQMNSLRVEDTAMYYCARDRPVAGASALWGQGTLVTVSS
VL: DIQMTQSPSTLSASVGDRVTITCRASQSISGWLAWYQQKPGKAPKLLIYKASSLESGVPSRFSGSGSGTEFTLTISSLQPDDFATYYCQQYYGSSRTFGQGTNVEIK
As for B5, the binding result in assay [1] and in assay [2] was “binds” throughout.

B6: 3B6 (antibody, V domains shown)
VH: EVQLVESGGGLVQPGGSLRLSCAASGGTTSTYWMSWVRQAPGKGLEWVANIKQDGSEKYYVDSVKGRFTISRDNAKNSLNLQMNSLRVEDTAIYYCARDRPVAGASALWGQGTLVTVSS
VL: DIQMTQSPSTLSASVGDRVTITCRASQSISGWLAWYQQKPGKAPKLLIYKASSLESGVPSRFSGSGSGTEFTLTISSLQPDDFATYYCQQYYGSSRTFGQGTNVEIK
B6: the binding entry in assay [1] and in assay [2] was “binds” each time.
